Results published in PubChem BioAssay AID1259415 (National Center for Advancing Translational Sciences (NCATS), 2018).
The campaign covered roughly 410,000 compounds. About 18,000 (4.4%) were called active. Inconclusive means that the source gave no clear call. Such entries were picked first, then a sample of the others. No stated cut-off is given here; in the data, active means activity change below about -60%; inconclusive means no clear call, values can overlap the other calls; inactive means above about -39%.

Assay: qHTS Assay for inhibitors of the human cytomegalovirus (HCMV)
Details: HFF cells, HCMV-luciferase reporter, 72 h; at 57.5 µM; stronger effect = lower value
In short: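 Compounds were evaluated in HFFs infected with an HCMV luciferase reporter virus (MOI 1 PFU/cell). Luciferase in lysates collected 72 h post infection served as the replication measure.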
On the % scale 0 is the no-effect control and ±100 the full control effect.

SMILES | activity change, negative = inhibition
Cc1ccccc1CC1C(=O)Nc2ccc(Br)cc21 (stereo not drawn) | inconclusive: -57.2%
S=c1[nH]nc(COc2ccccc2)n1/N=C/c1ccccc1Cl | inconclusive: -49%
CC(=O)c1c(N2CCN(C)CC2)nc(=S)n(-c2cc(C)ccc2C)c1C | inactive: -23.6%
Cc1oc(-c2ccccc2)cc1C(=O)Nc1ccc(N(C)C)cc1 | inconclusive: -43.9%
CN(Cc1cnccn1)Cc1c(C(=O)N2CCc3ccccc3C2)nc2ccc(Cl)cn12 | inconclusive: -47.3%
O=C(NCc1ccncc1)C1CCCN(S(=O)(=O)c2cc(Cl)ccc2Cl)C1 (stereo not drawn) | inconclusive: -51.8%
CN(C)Cc1c(C(=O)N/N=C/c2cccc(OCc3ccccc3)c2)nnn1-c1nonc1N | inactive: -12.8%
CC1CN(C(=O)C2(C)CC2(Cl)Cl)CC(C)O1 (stereo not drawn) | inactive: -20.4%
CN(CC(=O)Nc1ccccc1C(F)(F)F)C(=O)CC1OC(=O)c2ccccc21 (stereo not drawn) | inactive: 45.2%
CN(C)c1nc(C=C(C#N)C#N)c(Cl)n1-c1ccc(F)cc1 | active: -97.5%
COc1ccc(NC(=O)CN(C)CC(=O)NC(=O)NC2CCCCC2)cc1 | inactive: -24.3%
COc1ccc(C(=O)N(Cc2ccccc2)c2cccc(C)c2)cc1 | active: -60.2%
CC(C)(Oc1ccc(Cl)cc1)C(=O)NC1CCCCC1 | inconclusive: -40.5%
Cc1cc(C)cc(NS(=O)(=O)c2ccc(-n3cccn3)cc2)c1 | inconclusive: -40%
OC(c1ccccc1)(c1ccccc1)C1CCNCC1 | inconclusive: -45.3%
COc1ccc(Cl)cc1C(=O)OCC(=O)NC(=O)c1cccn1C | inactive: -5.75%
CC(=O)C1CCC2C3CC(C)=C4CC(O)CCC4(C)C3CCC12C (stereo not drawn) | inactive: -34.4%
CCOc1ccc(OCc2cccc(C(=O)N/N=C/c3cccnc3)c2)cc1 | inactive: 82.7%
CCN(c1ccccc1)S(=O)(=O)c1ccc(C(=O)N2CC(C)CC(C)C2)cc1 (stereo not drawn) | inconclusive: -45.2%
CCn1cc(C(=O)O)c(=O)c2cc(F)c(N3CCN(C(=S)NC(=O)c4ccccc4Br)CC3)cc21 | inconclusive: -40.2%

An excerpt from above in order of SMILES length, high to low:
SMILES | activity change, negative = inhibition
CCn1cc(C(=O)O)c(=O)c2cc(F)c(N3CCN(C(=S)NC(=O)c4ccccc4Br)CC3)cc21 | inconclusive: -40.2%
CN(CC(=O)Nc1ccccc1C(F)(F)F)C(=O)CC1OC(=O)c2ccccc21 (stereo not drawn) | inactive: 45.2%
Cc1oc(-c2ccccc2)cc1C(=O)Nc1ccc(N(C)C)cc1 | inconclusive: -43.9%

More results.

SMILES | activity change, negative = inhibition
O=C(N/N=C/c1ccc[nH]1)c1ccccc1OCc1ccc(F)cc1 | inconclusive: -53.2%
COc1ccc(S(=O)(=O)N2CCOC23CCN(C(=O)c2ccc(Cl)cc2Cl)CC3)cc1 | inconclusive: -49%
C(=N\n1c2ccccc2c2ccccc21)/c1ccccc1 | inactive: 18.6%
Nc1c(Cl)ncnc1N/N=C/c1ccc(O)cc1 | inconclusive: -42.2%
COC(=O)c1[nH]c2ccccc2c1NC(=O)CN1CCN(c2cccc(Cl)c2)CC1 | inconclusive: -49%
Cc1ccc(NC(=O)c2ccc(F)cc2F)cc1NS(C)(=O)=O | inconclusive: -49.5%
CC(C)(CNC(=O)c1sc2cc(Cl)ccc2c1Cl)N1CCOCC1 | inconclusive: -50.9%
Cn1ccc2c(/C=C/c3ccc(F)cc3)cc3c(c21)C1CCC3C1 (stereo not drawn) | active: -66.8%
CCn1c(=O)c(C(=O)NCCCO)c(O)c2ccccc21 | inactive: -15%
Cc1nnc(NC(=O)Nc2ccc(Cl)c(Cl)c2)s1 | inconclusive: -59.1%
CN(C)c1nnnn1-c1ccc(Cl)cc1Cl | inactive: -25.9%
CCC(C)(C)n1nnnc1C(c1ccncc1)N1CCC(Cc2ccccc2)CC1 (stereo not drawn) | inconclusive: -44.9%
CCOc1ccc(C2c3[nH]c4ccccc4c3CCN2Cc2cccn2-c2ncccn2)cc1 (stereo not drawn) | inconclusive: -40.3%
COc1cccc(C(=O)Nc2cccc(NC(=O)c3ccc(Cl)cc3Cl)c2)c1 | inconclusive: -48.9%
O=C(OCCOCCOC(=O)Oc1ccccc1)Oc1ccccc1 | inactive: 30.9%
CCc1ccc(OCCNC(=O)c2ccccc2SCc2ccc(F)cc2)cc1 | inconclusive: -40.6%
CN(C)c1ccc(NC(=O)Nc2cccc3ccccc23)cc1 | inactive: -11.5%
CC#CC(=O)NCC1(N(C)Cc2ccccc2)Cc2ccccc2C1 | inconclusive: -59.3%
Oc1ccc(/C=N/Nc2cc(N3CCCC3)nc(N3CCCC3)n2)cc1 | inconclusive: -40.2%
CCCCC(CC)CNC(=O)CN(C)S(=O)(=O)c1ccc2c(c1)c(=O)n(C)c(=O)n2C (stereo not drawn) | inconclusive: -46.5%

SMILES | activity change, negative = inhibition
Oc1ccc(C2=CSC3=NCCN23)cc1O | inactive: -7.3%
O=C(c1ccc(S(=O)(=O)Cc2ccccc2Cl)c([N+](=O)[O-])c1)N1CCN(c2ccccn2)CC1 | active: -97.2%
COc1ccc(-c2nc(CCNC(=O)c3cccs3)cs2)cc1 | inconclusive: -44.3%
COC(=O)c1c(-c2ccccc2)csc1NC(=O)c1ccco1 | inactive: 50.2%
CCOC(=O)N1CCN(C(=O)CSc2ccc3nnc(CCNC(=O)c4ccc(OC)cc4)n3n2)CC1 | inactive: 0%
CC1C(=O)N2CCCc3cc(S(=O)(=O)NCCc4ccccc4)cc1c32 (stereo not drawn) | inconclusive: -46.7%
Cc1cc(CSc2ccccc2)ccc1NC(=O)c1ccc(CN2CCOCC2)cc1 | active: -77.5%
Cc1cc(C)nc(/N=C(\N)Nc2ccc(OCCC(C)C)cc2)n1 | inconclusive: -47.6%
CC(C)Oc1ccc(C(=O)NC2CCN(Cc3ccccc3)CC2)cc1 | inconclusive: -41.5%
OC(c1ccc(F)cc1)c1ncc(-c2ccc3ccccc3c2)[nH]1 (stereo not drawn) | inactive: 34.5%
CN(C)CCC=C1c2ccccc2CCc2ccccc21 | inconclusive: -58%
O=S(=O)(c1ccc(-c2cc(C(F)(F)F)on2)s1)N1CCN(c2ccc(F)cc2)CC1 | inactive: 16.5%
CC12CC(=O)C3C(CCC4CC(=O)C=CC43C)C1CCC2=O (stereo not drawn) | inconclusive: -47.8%
CC1CN(S(=O)(=O)c2ccc(C(=O)Nc3nccs3)cc2)CC(C)O1 (stereo not drawn) | inconclusive: -40.2%
Cc1cccc(N/N=C/c2ccc(O)c(O)c2O)c1 | inconclusive: -52.6%
CCc1cccc(NC(=O)CCS(=O)(=O)c2cccc3nonc23)c1 | inconclusive: -43.1%
C#CCSc1nc(-c2ccccc2)cc(-c2ccccc2)c1C#N | inactive: -16.7%
Cc1cccc(-c2nc3c4ccccc4n(Cc4cccc(Cl)c4)c(=O)n3n2)c1 | inconclusive: -43.9%
